Primary screen of a compound library

Amino acid sequences for entries named in this document (tags omitted). Residues count along the entry.
UniProt A4I591, 1-473: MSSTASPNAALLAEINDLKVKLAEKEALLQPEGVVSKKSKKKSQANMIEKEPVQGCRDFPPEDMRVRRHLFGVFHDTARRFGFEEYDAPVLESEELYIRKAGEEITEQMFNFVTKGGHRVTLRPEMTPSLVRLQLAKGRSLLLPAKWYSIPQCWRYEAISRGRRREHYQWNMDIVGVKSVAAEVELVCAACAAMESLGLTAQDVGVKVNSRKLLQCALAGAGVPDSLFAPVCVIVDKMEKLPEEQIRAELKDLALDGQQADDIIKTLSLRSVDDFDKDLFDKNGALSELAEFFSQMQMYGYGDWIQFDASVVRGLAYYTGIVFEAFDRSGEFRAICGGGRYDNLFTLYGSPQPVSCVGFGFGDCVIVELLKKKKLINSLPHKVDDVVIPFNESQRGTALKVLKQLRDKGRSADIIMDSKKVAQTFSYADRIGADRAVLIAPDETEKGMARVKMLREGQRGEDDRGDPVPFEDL
UniProt Q8IDJ8, 1-583: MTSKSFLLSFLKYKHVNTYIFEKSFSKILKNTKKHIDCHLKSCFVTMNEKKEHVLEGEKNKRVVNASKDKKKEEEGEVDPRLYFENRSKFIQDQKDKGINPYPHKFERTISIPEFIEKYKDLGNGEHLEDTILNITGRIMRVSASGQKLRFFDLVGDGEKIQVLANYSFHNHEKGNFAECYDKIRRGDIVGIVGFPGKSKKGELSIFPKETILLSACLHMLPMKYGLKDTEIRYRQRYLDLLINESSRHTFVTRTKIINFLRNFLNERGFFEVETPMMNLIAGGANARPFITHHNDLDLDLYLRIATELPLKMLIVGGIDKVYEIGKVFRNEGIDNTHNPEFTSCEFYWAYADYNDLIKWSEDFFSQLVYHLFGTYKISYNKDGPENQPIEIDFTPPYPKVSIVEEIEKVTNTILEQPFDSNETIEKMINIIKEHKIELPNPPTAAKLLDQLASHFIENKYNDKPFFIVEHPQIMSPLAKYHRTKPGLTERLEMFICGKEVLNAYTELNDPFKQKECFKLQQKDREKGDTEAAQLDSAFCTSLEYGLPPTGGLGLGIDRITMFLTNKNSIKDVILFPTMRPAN

LiHisRS: 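Histidine-tRNA ligase, Leishmania infantum (UniProt A4I591). Enzyme assay of histidyl-tRNA synthetase; the read-out is not stated. Concentration: 30 µM. The record gives no direction; compounds that gave an IC50 in retests scored well above the rest, so higher reads as stronger inhibition. The assay is labelled LdHisRS but filed under L. infantum. Of about 69,000 compounds tested this way, about 410 (0.6%) reached 50% or more in at least one test.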
PfKRS1: 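Enzyme assay of the cytosolic lysyl-tRNA synthetase in 384-well plates, read by luminescence. Target: Lysine-tRNA ligase, Plasmodium falciparum 3D7 (UniProt Q8IDJ8). Tested at 30 µM. Direction is inferred from only a few compounds that gave an IC50; most scored high, so higher reads as stronger inhibition. About 69,000 compounds were tested under these conditions; 0.071% (about 49) showed 50% or more at least once.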

Values are the deposited “Percent Effect”, in %. The controls that fix the scale are not given in the record; negative values are as filed. Compounds were drawn at random from those tested, without regard to their results.

compound	LiHisRS	PfKRS1
COCCNc1nc(-c2ccc(S(=O)(=O)N3CCCCC3)cc2)cs1	21.05%	1.359%
O=C(CCN1CCOC(Cn2cccn2)C1)NC1CCCC1 (stereo unspecified)	24.32%	0.5807%
Cc1nc(COCc2nc3c(o2)CN(C(=O)c2ccc[nH]2)C3)cs1	39.32%	0.08181%
NC(=O)Cn1cc(NC(=O)N2CCCCCC2)cn1	16.51%	0.5337%
CN(CC(=O)N(CCC#N)c1ccccc1)C1CCc2ccccc21 (stereo unspecified)	0.885%	-0.01235%
CCN(CC)C(=O)c1cc(-c2cccc(Cl)c2)no1	6.349%	3.983%
Cc1ccc(OC2(C(=O)O)CCN(C(=O)CCc3ccco3)CC2)cc1	9.836%	4.569%
CC(C)CCc1noc(CN2CCCN(C(=O)c3ccco3)CC2)n1	11.43%	1.635%
OCCC1CN(c2ncnc3[nH]cnc23)CCN1Cc1ccccc1 (stereo unspecified)	17.95%	-0.6413%
CCN(CC)CC1CCN(C(=O)CCn2cccn2)CC1	14.68%	-0.1242%
O=C1C[C@H]2CC[C@@H](CN1)N2C(=O)Cc1ccsc1	-2.797%	-0.3959%
COCCNC(=O)Cn1c(-c2cccc(Cl)c2)nc(C)c(CCO)c1=O	19.57%	3.82%
Cc1ccc(F)cc1C(=O)OCC1CCCN1C(N)=O (stereo unspecified)	7.895%	5.062%
Cc1cccc(CN2C[C@@H]3CN(C(=O)c4cnccn4)C[C@@H]3C2=O)c1	28.57%	5.206%
Cc1[nH]ncc1C(=O)N(CC(C)C)CC(O)c1ccc(F)cc1 (stereo unspecified)	14.46%	0.9338%
COc1ccc(CC(C)(O)CNC(=O)NCc2cccs2)cc1 (stereo unspecified)	7.692%	4.375%
O=c1c2cccc(C(F)(F)F)c2ncn1CCN1CCNCC1	15.49%	3.285%
CC(C)Cc1cc(NC(=O)c2cc(Cl)c[nH]2)n(C)n1	12.17%	0.384%
CC(C)NC(=O)CC1COC2(CCN(Cc3ccsc3)CC2)C1 (stereo unspecified)	11.93%	5.191%
O=S(=O)(Nc1cnn(C2CCOCC2)c1)c1ccc(Br)cc1	2.247%	2.756%
O=C(NCc1cncc2c1CCN(Cc1cccs1)C2)C1CC1	10.95%	5.184%
CC(C)CN1CCC2(CCN(CC3CC3)CC2)C1=O	1.754%	-0.08533%
COc1ccc(NC(=O)CSc2nncn2-n2cccc2)c(OC)c1	2.174%	0.7019%
CCN(Cc1nc(COC)no1)Cc1cc2ccc(F)cc2[nH]c1=O	0%	4.165%
CC(NC(=O)Nc1ccc(-c2csnn2)cc1)C(=O)NC(C)(C)C (stereo unspecified)	7.08%	2.447%
CCN1CCC(NC(=O)CN2CCCC2Cn2cncn2)CC1 (stereo unspecified)	8.108%	5.976%
Cc1cc(CN2CCC(C3CCN(CCc4ccccc4)C3)CC2)[nH]n1 (stereo unspecified)	25.49%	5.405%
c1ccc(CN2CCc3ncnc(C4CC4)c3CC2)nc1	13.13%	6.326%
COCCN1C=NC2(CCC(C(=O)Nc3ccc(C)cc3)CC2)C1=O (stereo unspecified)	12.82%	-0.1049%
O=C(c1cc(Br)ccc1-n1cnnn1)N1CCCCC1	21.74%	0.03504%
COc1nc2c(cc1C(=O)NCCc1nc(C)c(C(=O)O)s1)CCC2	-5.333%	1.165%
O=C(CCn1ncc2c(Cl)cccc21)NCC1CC1	15.52%	-4.68%
CC(C)Cc1noc(C2CCCCN2C(=O)CCc2cnn(C)c2)n1 (stereo unspecified)	14.29%	5.885%
Cc1cc(Cl)c(C)c(S(=O)(=O)N2CCN(Cc3ccccn3)CC2)c1Cl	20.48%	-3.65%
O=C(c1cnccn1)N1CCN2C[C@H](OCC3CC3)C[C@H]2C1	15.07%	-0.5991%
CS(=O)(=O)NC(=O)CCc1cccc(OC2CCCC2)c1	10.96%	0.2029%
CCNc1nc(C)c(C(=O)N(C)Cc2noc(C)n2)s1	-1.075%	-2.058%
Cc1ccc(CN(CCCn2ccnc2)Cc2cccs2)s1	11.58%	-1.59%
CCCc1ccc(CN2CCN(C(=O)NCC)[C@H]3CS(=O)(=O)C[C@H]32)o1	13.22%	13.41%
O=C(NCc1ccco1)[C@@]12CCO[C@@H]1CCN(C1CCC1)C2	31.43%	8.52%
Cc1ccccc1C(C(=O)N(C)Cc1cnn(C)c1)N(C)C (stereo unspecified)	13.43%	5.211%
Cc1ccc(N2CCCC(N3CCC4(CC3)OCCO4)C2=O)cc1 (stereo unspecified)	16.67%	3.356%
COc1ccc(C(=O)Nc2cnn(CC(=O)NC3CCCC3)c2)c(O)c1	22.86%	1.909%
O=C(NS(=O)(=O)c1cccc(C(F)(F)F)c1)c1cscn1	14%	5.914%
CCN(C(=O)c1c(Cl)cnn1CC)C(C)C(N)=O (stereo unspecified)	16.13%	4.483%
CN(C)c1ccc(CN2CCC(C(O)Cc3ccccc3)CC2)cn1 (stereo unspecified)	14.88%	4.619%
CN(C)Cc1ccc(N2CCN(CCOCC(F)(F)F)CC2)nc1	18.99%	1.014%
CN1CCCCC1CCC(=O)NCCCn1ncc2ccccc21 (stereo unspecified)	18.99%	3.84%
COCCN1CCC2(CCCN(C(=O)c3cnoc3C)C2)C1=O (stereo unspecified)	1.905%	-3.396%
O=C1COC2(CCN(Cc3ccncc3)CC2)CN1c1ccccc1	18.09%	0.1721%
CCN1CCN(C)C2(CCN(Cc3ccc(C)o3)CC2)C1=O	21.36%	3.097%
COCC(=O)N1CCCCC1c1nc(N(C)C)ncc1-c1cc(C)no1 (stereo unspecified)	2.878%	-0.783%
NCc1cn(-c2ccccc2C(=O)NCc2ccccc2Cl)cn1	10.31%	1.733%
CC(Cn1ccnc1)NC(=O)N1CCN(Cc2ccsc2)CC1 (stereo unspecified)	12.5%	0.7444%
CN(CC1(CO)CCCC1)C(=O)c1cc(COc2ccccc2F)[nH]n1	18.09%	2.98%
Cc1nn(C)c(N(C)C)c1CNCc1cccc(Cn2cccn2)c1	3.279%	3.927%
O=C1CCC2(CCCN(C(=O)c3ccc[nH]3)C2)CN1CCc1c[nH]cn1 (stereo unspecified)	17.81%	5.192%
Cc1cccc(CNCC2(O)CCCN(CC3CCCCC3)C2=O)n1 (stereo unspecified)	15.29%	3.016%
NC[C@H]1CC[C@H](C(NC(=O)c2ccccc2)c2ccccn2)CC1 (stereo partly specified)	22.86%	3.381%
Cn1ccc(C(=O)N2CCCC2c2ccc3c(c2)OCCO3)cc1=O (stereo unspecified)	12.12%	5.041%
Fc1ccc(C2CCCCN2Cc2cc(-c3ccccn3)no2)cc1 (stereo unspecified)	19.47%	0.09889%
CCCc1n[nH]c(C2CN(CC(=O)N(C)Cc3ccco3)CCO2)n1 (stereo unspecified)	9.091%	0.9166%
NC(=O)c1c(NC(=O)CCC(=O)O)sc2c1CCc1ccccc1-2	26.09%	1.951%
COCc1cc(C[C@@H]2CC[C@H](O)[C@@H](CN(CC(C)C)CC(C)C)O2)no1	18.92%	5.994%
Cc1csc(N2CCN(CC(=O)N3CCNC3=O)CC2C)n1 (stereo unspecified)	-1.835%	-1.393%
COCCn1cc(-c2cc(C(=O)N3CCCC3)c3ccccn23)nc1C	-1602%	2.457%

The last 4 entries again:

For NC(=O)c1c(NC(=O)CCC(=O)O)sc2c1CCc1ccccc1-2 the result was LiHisRS: 26.09%; PfKRS1: 1.951%.
For COCc1cc(C[C@@H]2CC[C@H](O)[C@@H](CN(CC(C)C)CC(C)C)O2)no1 the result was LiHisRS: 18.92%; PfKRS1: 5.994%.
For Cc1csc(N2CCN(CC(=O)N3CCNC3=O)CC2C)n1 (stereo unspecified) the result was LiHisRS: -1.835%; PfKRS1: -1.393%.
For COCCn1cc(-c2cc(C(=O)N3CCCC3)c3ccccn23)nc1C the result was LiHisRS: -1602%; PfKRS1: 2.457%.

Source: ChEMBL document CHEMBL3988442, “University of Dundee, Small-Polar-MMV Screening Library” (2021).